Measured values taken from article doi:10.1101/717769.

The chains behind the UniProt entries cited, without tags or fusion partners.
UniProt O14646: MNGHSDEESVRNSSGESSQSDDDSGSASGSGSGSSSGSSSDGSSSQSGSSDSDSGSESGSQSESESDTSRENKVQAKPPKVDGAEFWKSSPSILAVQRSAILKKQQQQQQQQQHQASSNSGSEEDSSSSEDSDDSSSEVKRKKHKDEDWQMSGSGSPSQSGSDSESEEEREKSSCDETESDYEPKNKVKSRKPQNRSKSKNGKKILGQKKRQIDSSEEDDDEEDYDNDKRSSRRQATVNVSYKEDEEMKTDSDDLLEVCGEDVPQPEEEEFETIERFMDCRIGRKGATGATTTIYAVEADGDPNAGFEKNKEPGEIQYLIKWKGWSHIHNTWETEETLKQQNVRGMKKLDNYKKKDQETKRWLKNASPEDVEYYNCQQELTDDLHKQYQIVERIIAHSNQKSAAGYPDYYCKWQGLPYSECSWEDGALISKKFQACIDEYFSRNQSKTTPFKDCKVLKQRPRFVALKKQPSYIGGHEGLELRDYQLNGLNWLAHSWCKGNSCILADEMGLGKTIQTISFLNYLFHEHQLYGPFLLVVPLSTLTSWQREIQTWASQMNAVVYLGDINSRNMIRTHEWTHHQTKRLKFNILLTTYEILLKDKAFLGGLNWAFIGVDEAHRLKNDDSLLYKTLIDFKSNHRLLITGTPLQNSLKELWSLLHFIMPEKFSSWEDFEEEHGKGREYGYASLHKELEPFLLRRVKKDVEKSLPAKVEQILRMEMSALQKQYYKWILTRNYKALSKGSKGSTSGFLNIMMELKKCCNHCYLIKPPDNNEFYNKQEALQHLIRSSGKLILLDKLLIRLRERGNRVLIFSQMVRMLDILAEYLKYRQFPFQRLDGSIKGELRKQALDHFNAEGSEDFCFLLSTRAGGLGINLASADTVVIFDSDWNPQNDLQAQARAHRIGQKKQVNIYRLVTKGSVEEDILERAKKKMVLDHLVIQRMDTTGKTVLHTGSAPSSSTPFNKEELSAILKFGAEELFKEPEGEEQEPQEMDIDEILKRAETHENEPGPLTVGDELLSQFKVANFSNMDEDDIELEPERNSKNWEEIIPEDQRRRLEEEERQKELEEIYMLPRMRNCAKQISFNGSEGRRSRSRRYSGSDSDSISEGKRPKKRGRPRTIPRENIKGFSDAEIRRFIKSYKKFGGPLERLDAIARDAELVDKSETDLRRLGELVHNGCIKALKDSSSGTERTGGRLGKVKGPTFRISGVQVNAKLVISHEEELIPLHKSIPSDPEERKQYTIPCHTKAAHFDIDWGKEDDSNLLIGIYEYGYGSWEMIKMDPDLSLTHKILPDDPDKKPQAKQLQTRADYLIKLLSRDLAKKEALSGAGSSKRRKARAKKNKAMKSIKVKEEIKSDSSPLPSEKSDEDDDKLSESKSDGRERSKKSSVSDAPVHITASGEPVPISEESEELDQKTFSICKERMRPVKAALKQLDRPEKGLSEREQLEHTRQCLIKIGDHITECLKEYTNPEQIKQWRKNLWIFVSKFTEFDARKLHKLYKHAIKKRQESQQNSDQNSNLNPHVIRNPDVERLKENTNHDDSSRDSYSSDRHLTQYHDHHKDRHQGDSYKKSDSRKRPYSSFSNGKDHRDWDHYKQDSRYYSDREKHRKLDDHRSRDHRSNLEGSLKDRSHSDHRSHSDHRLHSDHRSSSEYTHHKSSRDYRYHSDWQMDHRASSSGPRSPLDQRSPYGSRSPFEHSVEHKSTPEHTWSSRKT
UniProt Q8IZL8: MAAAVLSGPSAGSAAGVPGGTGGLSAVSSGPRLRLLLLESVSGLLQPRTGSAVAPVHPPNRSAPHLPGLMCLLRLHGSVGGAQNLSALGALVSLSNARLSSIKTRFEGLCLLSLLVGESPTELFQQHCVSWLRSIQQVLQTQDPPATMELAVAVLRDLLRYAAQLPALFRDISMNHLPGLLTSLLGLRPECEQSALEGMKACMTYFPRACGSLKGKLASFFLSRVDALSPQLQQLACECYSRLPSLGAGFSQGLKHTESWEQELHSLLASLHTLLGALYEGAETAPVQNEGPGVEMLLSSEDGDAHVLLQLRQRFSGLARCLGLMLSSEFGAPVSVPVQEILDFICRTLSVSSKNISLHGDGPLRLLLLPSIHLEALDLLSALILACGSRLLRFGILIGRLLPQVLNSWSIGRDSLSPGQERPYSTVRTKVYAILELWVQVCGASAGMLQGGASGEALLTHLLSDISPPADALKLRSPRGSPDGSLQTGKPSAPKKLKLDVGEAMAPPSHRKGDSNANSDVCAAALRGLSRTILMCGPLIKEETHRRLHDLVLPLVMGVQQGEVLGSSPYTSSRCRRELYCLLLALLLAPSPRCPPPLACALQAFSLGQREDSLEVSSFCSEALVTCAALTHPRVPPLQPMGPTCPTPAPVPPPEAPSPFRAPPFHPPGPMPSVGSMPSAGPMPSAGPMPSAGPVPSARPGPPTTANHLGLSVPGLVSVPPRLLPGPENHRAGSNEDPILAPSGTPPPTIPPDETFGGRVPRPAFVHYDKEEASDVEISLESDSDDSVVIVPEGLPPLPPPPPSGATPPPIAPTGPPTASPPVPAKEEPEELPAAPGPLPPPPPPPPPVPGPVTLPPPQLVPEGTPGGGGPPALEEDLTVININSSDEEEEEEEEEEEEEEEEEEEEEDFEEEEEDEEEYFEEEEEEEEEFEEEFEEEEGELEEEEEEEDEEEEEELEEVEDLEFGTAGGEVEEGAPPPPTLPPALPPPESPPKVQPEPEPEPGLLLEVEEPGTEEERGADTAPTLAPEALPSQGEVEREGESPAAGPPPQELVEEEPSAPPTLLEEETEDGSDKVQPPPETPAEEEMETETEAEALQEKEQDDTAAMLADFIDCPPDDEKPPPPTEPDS
UniProt Q9Y4B6: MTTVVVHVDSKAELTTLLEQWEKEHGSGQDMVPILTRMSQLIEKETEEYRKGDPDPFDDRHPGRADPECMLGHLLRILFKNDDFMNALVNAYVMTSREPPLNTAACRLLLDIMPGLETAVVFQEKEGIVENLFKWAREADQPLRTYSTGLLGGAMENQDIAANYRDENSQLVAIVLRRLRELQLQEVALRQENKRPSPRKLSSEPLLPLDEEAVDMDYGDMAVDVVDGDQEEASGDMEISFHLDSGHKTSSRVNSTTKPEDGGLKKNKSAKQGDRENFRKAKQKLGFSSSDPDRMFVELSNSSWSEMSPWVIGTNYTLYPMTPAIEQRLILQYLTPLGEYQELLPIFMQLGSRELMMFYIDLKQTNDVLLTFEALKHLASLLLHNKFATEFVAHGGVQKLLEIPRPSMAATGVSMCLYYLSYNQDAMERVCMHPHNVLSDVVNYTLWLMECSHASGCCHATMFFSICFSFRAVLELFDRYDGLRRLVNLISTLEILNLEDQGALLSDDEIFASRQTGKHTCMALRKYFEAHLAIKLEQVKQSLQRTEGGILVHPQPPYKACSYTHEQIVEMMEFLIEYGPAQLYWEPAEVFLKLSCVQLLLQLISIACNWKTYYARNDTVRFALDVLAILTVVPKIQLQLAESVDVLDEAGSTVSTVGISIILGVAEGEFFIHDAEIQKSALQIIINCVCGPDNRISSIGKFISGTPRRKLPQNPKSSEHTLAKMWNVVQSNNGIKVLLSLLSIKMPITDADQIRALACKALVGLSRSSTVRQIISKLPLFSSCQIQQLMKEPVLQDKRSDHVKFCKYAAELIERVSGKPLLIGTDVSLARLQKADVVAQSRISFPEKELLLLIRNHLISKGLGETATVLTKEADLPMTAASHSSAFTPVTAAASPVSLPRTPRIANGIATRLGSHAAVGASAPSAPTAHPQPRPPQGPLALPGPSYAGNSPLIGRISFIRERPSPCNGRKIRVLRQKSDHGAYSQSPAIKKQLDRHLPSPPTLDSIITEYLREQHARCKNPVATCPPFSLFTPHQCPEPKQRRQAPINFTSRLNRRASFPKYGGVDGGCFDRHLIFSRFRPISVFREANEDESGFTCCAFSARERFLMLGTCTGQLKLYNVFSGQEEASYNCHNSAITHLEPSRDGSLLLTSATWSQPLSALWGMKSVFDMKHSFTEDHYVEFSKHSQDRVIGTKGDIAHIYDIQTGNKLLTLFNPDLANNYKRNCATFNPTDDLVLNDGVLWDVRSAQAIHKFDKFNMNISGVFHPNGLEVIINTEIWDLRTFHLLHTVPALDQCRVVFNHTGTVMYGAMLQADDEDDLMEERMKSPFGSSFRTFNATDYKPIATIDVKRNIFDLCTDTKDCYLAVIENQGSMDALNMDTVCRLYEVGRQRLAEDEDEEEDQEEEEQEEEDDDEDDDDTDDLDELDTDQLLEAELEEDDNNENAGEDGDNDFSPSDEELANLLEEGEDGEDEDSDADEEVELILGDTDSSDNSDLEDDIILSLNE

B1: TAT-SF1 (endogenous) (protein, UniProt O43719 1-755)
chain: MSGTNLDGNDEFDEQLRMQELYGDGKDGDTQTDAGGEPDSLGQQPTDTPYEWDLDKKAWFPKITEDFIATYQANYGFSNDGASSSTANVEDVHARTAEEPPQEKAPEPTDARKKGEKRKAESGWFHVEEDRNTNVYVSGLPPDITVDEFIQLMSKFGIIMRDPQTEEFKVKLYKDNQGNLKGDGLCCYLKRESVELALKLLDEDEIRGYKLHVEVAKFQLKGEYDASKKKKKCKDYKKKLSMQQKQLDWRPERRAGPSRMRHERVVIIKNMFHPMDFEDDPLVLNEIREDLRVECSKFGQIRKLLLFDRHPDGVASVSFRDPEEADYCIQTLDGRWFGGRQITAQAWDGTTDYQVEETSREREERLRGWEAFLNAPEANRGLRRSDSVSASERAGPSRARHFSEHPSTSKMNAQETATGMAFEEPIDEKKFEKTEDGGEFEEGASENNAKESSPEKEAEEGCPEKESEEGCPKRGFEGSCSQKESEEGNPVRGSEEDSPKKESKKKTLKNDCEENGLAKESEDDLNKESEEEVGPTKESEEDDSEKESDEDCSEKQSEDGSEREFEENGLEKDLDEEGSEKELHENVLDKELEENDSENSEFEDDGSEKVLDEEGSEREFDEDSDEKEEEEDTYEKVFDDESDEKEDEEYADEKGLEAADKKAEEGDADEKLFEESDDKEDEDADGKEVEDADEKLFEDDDSNEKLFDEEEDSSEKLFDDSDERGTLGGFGSVEEGPLSTGSSFILSSDDDDDDI
B2: AMOTL1 (endogenous) (protein, UniProt Q8IY63 1-956)
chain: MWRAKLRRGTCEPAVKGSPSACYSPSSPVQVLEDSTYFSPDFQLYSGRHETSALTVEATSSIREKVVEDPLCNFHSPNFLRISEVEMRGSEDAAAGTVLQRLIQEQLRYGTPTENMNLLAIQHQATGSAGPAHPTNNFSSTENLTQEDPQMVYQSARQEPQGQEHQVDNTVMEKQVRSTQPQQNNEELPTYEEAKAQSQFFRGQQQQQQQQGAVGHGYYMAGGTSQKSRTEGRPTVNRANSGQAHKDEALKELKQGHVRSLSERIMQLSLERNGAKQHLPGSGNGKGFKVGGGPSPAQPAGKVLDPRGPPPEYPFKTKQMMSPVSKTQEHGLFYGDQHPGMLHEMVKPYPAPQPVRTDVAVLRYQPPPEYGVTSRPCQLPFPSTMQQHSPMSSQTSSASGPLHSVSLPLPLPMALGAPQPPPAASPSQQLGPDAFAIVERAQQMVEILTEENRVLHQELQGYYDNADKLHKFEKELQRISEAYESLVKSTTKRESLDKAMRNKLEGEIRRLHDFNRDLRDRLETANRQLSSREYEGHEDKAAEGHYASQNKEFLKEKEKLEMELAAVRTASEDHRRHIEILDQALSNAQARVIKLEEELREKQAYVEKVEKLQQALTQLQSACEKREQMERRLRTWLERELDALRTQQKHGNGQPANMPEYNAPALLELVREKEERILALEADMTKWEQKYLEESTIRHFAMNAAATAAAERDTTIINHSRNGSYGESSLEAHIWQEEEEVVQANRRCQDMEYTIKNLHAKIIEKDAMIKVLQQRSRKDAGKTDSSSLRPARSVPSIAAATGTHSRQTSLTSSQLAEEKKEEKTWKGSIGLLLGKEHHEHASAPLLPPPPTSALSSIASTTAASSAHAKTGSKDSSTQTDKSAELFWPSMASLPSRGRLSTTPAHSPVLKHPAAKGTAEKLENSPGHGKSPDHRGRVSSLLHKPEFPDGEMMEVLI

Target: TAP6-Merlin (UniProt P35240)
Test: affinity purification with mass spectrometry

binding, binds:
CHD1 (endogenous) (from UniProt O14646 1-1710)
PELP1 (endogenous) (from UniProt Q8IZL8 1-1130)
VPRBP/DCAF1 (endogenous) (from UniProt Q9Y4B6 1-1507)
B1
B2

Results are given in words; binding and its absence hold for the method and conditions named. Binding seen in cells or lysates may run through a third protein. A yes stands for co-enrichment or nearness to the bait. Other partners may have been found.
